Data from article doi:10.1101/296194.
These are yes or no findings as the source states them, for the method shown. In cells and extracts the contact can be indirect. Here binding means that the protein was enriched with, or labelled near, the bait; the list need not be complete. A no says only that the protein was not detected with the bait. Tags and fused reporters may be left off the sequences shown.

Sequences of proteins named here, by UniProt entry; tags and fusion partners are left off.
UniProt P00519: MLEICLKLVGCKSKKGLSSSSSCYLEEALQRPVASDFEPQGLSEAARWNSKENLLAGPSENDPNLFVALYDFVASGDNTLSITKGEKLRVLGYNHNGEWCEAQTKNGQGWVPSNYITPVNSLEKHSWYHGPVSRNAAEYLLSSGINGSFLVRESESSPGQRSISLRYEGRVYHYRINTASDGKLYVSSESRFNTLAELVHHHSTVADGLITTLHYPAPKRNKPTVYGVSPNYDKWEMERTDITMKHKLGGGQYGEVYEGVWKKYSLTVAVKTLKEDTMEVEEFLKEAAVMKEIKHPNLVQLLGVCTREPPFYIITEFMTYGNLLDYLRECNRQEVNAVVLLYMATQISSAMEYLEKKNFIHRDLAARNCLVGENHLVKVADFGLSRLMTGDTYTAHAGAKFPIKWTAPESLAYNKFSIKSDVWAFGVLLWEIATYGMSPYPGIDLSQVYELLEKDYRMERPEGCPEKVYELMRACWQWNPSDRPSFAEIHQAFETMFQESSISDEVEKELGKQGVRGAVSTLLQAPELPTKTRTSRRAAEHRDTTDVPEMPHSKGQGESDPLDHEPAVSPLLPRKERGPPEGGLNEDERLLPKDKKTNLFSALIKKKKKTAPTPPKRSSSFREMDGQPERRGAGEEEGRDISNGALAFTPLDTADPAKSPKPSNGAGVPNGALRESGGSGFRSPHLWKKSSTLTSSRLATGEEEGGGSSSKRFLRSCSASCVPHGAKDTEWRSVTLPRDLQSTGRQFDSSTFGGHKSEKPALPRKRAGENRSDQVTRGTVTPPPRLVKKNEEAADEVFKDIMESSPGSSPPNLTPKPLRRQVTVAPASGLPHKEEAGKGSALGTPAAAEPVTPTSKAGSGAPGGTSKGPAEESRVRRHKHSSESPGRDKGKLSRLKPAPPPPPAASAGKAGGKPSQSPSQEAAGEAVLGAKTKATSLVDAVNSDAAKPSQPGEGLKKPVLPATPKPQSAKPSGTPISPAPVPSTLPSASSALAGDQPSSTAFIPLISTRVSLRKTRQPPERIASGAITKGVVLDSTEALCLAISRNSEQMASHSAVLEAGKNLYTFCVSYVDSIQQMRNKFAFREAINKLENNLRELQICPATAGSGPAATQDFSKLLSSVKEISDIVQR

Experiments:
Assay in all cases: affinity purification with mass spectrometry
[1] = target: T1, Flag-PTPN18-WT (UniProt Q99952)
T1 sequence: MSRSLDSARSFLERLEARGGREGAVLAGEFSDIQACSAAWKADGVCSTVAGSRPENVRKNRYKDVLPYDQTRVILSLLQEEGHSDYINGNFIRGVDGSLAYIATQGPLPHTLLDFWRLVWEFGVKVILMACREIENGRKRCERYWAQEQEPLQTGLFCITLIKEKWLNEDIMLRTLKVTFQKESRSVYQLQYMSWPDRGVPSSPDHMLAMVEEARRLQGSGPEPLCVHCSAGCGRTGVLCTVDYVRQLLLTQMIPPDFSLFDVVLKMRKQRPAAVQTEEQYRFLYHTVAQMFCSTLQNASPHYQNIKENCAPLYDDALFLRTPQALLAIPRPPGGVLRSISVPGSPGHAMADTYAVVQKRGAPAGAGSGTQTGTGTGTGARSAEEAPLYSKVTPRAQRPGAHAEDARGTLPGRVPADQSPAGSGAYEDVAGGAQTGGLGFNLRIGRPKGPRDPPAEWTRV

[2] = target: T2, Flag-PTPN7 WT (UniProt P35236)
T2 sequence: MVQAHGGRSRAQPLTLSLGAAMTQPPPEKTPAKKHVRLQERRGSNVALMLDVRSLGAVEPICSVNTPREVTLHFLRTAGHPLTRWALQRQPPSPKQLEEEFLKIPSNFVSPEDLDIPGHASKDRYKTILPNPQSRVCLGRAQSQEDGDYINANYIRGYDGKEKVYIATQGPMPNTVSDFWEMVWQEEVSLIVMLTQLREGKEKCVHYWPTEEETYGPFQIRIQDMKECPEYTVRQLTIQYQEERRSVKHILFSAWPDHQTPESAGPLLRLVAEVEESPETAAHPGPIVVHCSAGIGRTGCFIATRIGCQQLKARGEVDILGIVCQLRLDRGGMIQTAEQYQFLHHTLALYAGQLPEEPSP

[3] = target: T3, Flag-PTPN9 WT (UniProt P43378)
T3 sequence: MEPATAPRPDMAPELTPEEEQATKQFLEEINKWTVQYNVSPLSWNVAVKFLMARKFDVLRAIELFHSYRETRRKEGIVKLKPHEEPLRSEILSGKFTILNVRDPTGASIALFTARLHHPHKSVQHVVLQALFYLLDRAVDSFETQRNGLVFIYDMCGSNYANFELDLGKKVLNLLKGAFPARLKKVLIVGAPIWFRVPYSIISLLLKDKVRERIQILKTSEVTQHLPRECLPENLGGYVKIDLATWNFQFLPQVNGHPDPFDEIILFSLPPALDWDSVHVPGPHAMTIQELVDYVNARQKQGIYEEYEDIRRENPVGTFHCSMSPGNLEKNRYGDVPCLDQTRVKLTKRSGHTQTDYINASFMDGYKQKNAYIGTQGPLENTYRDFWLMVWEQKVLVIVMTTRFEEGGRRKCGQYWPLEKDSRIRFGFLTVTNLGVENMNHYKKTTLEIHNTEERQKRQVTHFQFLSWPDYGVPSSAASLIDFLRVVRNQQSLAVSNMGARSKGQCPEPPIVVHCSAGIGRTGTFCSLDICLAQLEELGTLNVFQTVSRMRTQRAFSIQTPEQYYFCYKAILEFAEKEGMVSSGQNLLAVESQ

Measured: binding

ABL1 (from UniProt P00519 1-1130)
no binding: all assays above
